Assay results reported in PubChem BioAssay AID493014 (National Center for Advancing Translational Sciences (NCATS), 2011).
The whole screen tested about 340,000 compounds, of which about 170 (0.05%) were called active. The shares of active, inactive and inconclusive entries below differ from those in the screen. The call rests on the fitted dose curve; in most records, active means well fitted inhibition curve with a large enough effect in the signal ratio, with a control signal flat (not every such curve was filed as active); inconclusive means small, poorly fitted or top-dose-only effect, or effect the other way, or a change in a side signal; inactive means flat fitted curve, though single readings scatter; the % refers to the signal ratio. Potencies of inconclusive entries are doubtful fits and often do not repeat.

Assay: qHTS Assay to Find Inhibitors of Chronic Active B-Cell Receptor Signaling;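 on activity change, negative = inhibition: plate controls were basal doxycycline-induced cells for no effect and cells given 10 µM MG132 for full effect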
Conditions: ABC-DLBCL IkBa-CBG/CBR reporter, luminescence ratio (green luciferase fused to IkBa over red control in TMD8 lymphoma cells), 4 h; activity change, negative = inhibition: at 46.1 µM (top of the series)
Outline: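 Doxycycline induced both beetle luciferases in TMD8 lymphoma cells; IKK-driven degradation limits the IkappaBalpha-fused green signal, while red luminescence normalises for cell number and nonspecific effects. Compounds tested up to 46 uM, 4 hrs.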
Potency means the concentration at half of the fitted maximal effect.

Compound | Potency | activity change, negative = inhibition
Cc1noc(C)c1COc1cccc(C(=O)Nc2ccc3c(c2)OCO3)c1 | inconclusive: 3.98 µM [falling, full curve] | –
CC1=NN(c2ccc(C)cc2)C(=O)/C1=C\c1ccc(Br)s1 | inconclusive: 2.31 µM [rising, full curve] | –
CC1=C(CCN2CCN(C3CCCC3)C(CCO)C2)C(C)(C)CCC1 (configuration not stated) | – | inconclusive: 6.2%
O=C(Nc1ccc(Oc2ccc(C(=O)O)c(C(=O)O)c2)cc1)c1cccs1 | inconclusive: 35.5 µM [falling, partial curve, poor fit] | –
O=C(c1cc2c([nH]c1=O)CCCC2)N1CCc2c([nH]c3ccccc23)C1c1ccccc1F (configuration not stated) | – | inconclusive: 5.59%
O=C(CSc1nncc2ccccc12)Nc1cccc(C(=O)O)c1 | inconclusive: 11.2 µM [falling, partial curve] | –
OCCC1CN(Cc2cccn2-c2ccccn2)CCN1Cc1ccccc1 (configuration not stated) | – | inconclusive: -1.71%
Cc1ccc(N/N=C(/Sc2nnnn2-c2ccccc2)C(=O)c2ccccc2)cc1 | – | inactive: 6.23%
Cc1cnn(CCC(=O)NNC(=S)Nc2ccc(F)cc2)c1 | – | inconclusive: -29.4%
CCOC(=O)CSc1cc(CSc2ccccc2)nc(-c2ccccc2)n1 | inconclusive: 8.2 µM [rising, partial curve, poor fit] | –
O=C(NCc1ccc2c(c1)OCO2)c1ccc(S(=O)(=O)C(F)F)cc1 | inconclusive: 11.2 µM [falling, partial curve] | –
COc1ccc(OC)c(CN(CCN2CCOCC2)C(=O)Nc2cccc(Cl)c2)c1 | – | inactive: -0.486%
Clc1ccc(/C=N/Nc2ccccn2)cc1 | – | inconclusive: 6.55%
C[n+]1c2n(c3ccccc31)N=C(c1ccc(Br)cc1)CS2 | – | inconclusive: -2.91%
O=C(Cn1cnc2ccccc2c1=O)c1ccc2c(c1)OCCO2 | – | inconclusive: 0.336%
CCN(CC)CC(=O)NC1CC(C)(C)Cc2c1cnn2-c1ccc(F)cc1 (configuration not stated) | – | inconclusive: -2.42%
CN(C(=O)C1CCCO1)C1CCS(=O)(=O)C1 (configuration not stated) | – | inactive: 0.728%
COc1ccc(/C=C/c2c([N+](=O)[O-])c(=O)n(C)c(=O)n2C)c(OC)c1 | – | inactive: -0.574%
O=C(Nc1ccccc1)N1CCN(c2ncccn2)CC1 | inconclusive: 20.6 µM [falling, partial curve] | –
NC1=NN=C(c2ccc3c(c2)OCCO3)CS1 | inconclusive: 22.4 µM [falling, single point] | –
CCOC(=O)c1cc2c(n(-c3ccccc3)c1=O)CC(C)(C)CC2=O | inconclusive: 29.1 µM [falling, single point] | –
O=C(COC(=O)c1cc([N+](=O)[O-])ccc1N1CCOCC1)Nc1ccccc1OC(F)F | – | inconclusive: -5.87%
CCN(CCn1cccn1)C(=O)CCc1nnc(C2(c3ccc(Cl)cc3)CCC2)o1 | – | inconclusive: 26.7%
O=C(OCC(=O)c1cccs1)c1ccc(NC(=O)c2ccco2)cc1 | – | inconclusive: 0.0464%
CCCC(C)c1nnc(NC(=O)C2CCCO2)s1 (configuration not stated) | – | inactive: 6.89%
COc1ccc(/C=N/NC(=O)CNS(=O)(=O)c2ccc(C)cc2)cc1 | – | inconclusive: 3.86%

Compound | Potency | activity change, negative = inhibition
COC(=O)c1ccc(C)c(NC(=O)c2ccc(Cl)c([N+](=O)[O-])c2)c1 | – | inconclusive: 0.223%
CCOC(=O)c1cc(-c2ccco2)nn1-c1ccc(C)cc1 | – | inconclusive: 0.99%
COc1ccc(/C=N\NC(=O)c2ccc(=O)[nH]n2)cc1O | – | inconclusive: -12.8%
CCn1cc(C(=O)NCc2cccnc2)c2cc(OC)c(OC)cc2c1=O | – | inconclusive: -11.3%
O=C(Cc1ccccc1)Nc1ncccn1 | – | inactive: -0.813%
S=C(Nc1ccccn1)Nc1ccccc1Cl | – | inconclusive: -18.3%
Cn1c(SCC(=O)N2CCc3ccccc3C2)nnc1-c1ccncc1 | – | inconclusive: -0.735%
CCS(=O)(=O)C1=NN2C(=N)/C(=C\c3ccc(SCc4ccco4)o3)C(=O)N=C2S1 | – | inconclusive: 10.4%
COc1ccc(OC)c(C(=O)CSc2nc3ncccc3[nH]2)c1 | inconclusive: 20 µM [falling, single point] | –
O=C(O)C(Cc1c[nH]c2ccccc12)N1C(=O)C2C3c4ccccc4C(c4ccccc43)C2C1=O (configuration not stated) | – | inconclusive: -4.23%
CC[C@@H]1[C@H]2CCCC(=O)N3CC[C@@H](C[C@@H]1Nc1ccccc1)[C@@H]23 | – | inconclusive: -23.9%
COc1ccc(CN2CCC(N(CCc3ccccc3)Cc3ccccc3)CC2)c(OC)c1 | inconclusive: 31.6 µM [falling, single point] | –
COc1ccc(C)cc1NC(=O)C/C(C)=N/NC(=O)Cc1cccc2ccccc12 | inconclusive: 22.4 µM [falling, single point] | –
O=C(CN1CCC(C(=O)c2ccc3c(c2)OCCO3)CC1)NCc1ccc(F)cc1 | – | inconclusive: -19.7%
O=C(NC1CCCCNC1=O)c1ccc(Cl)cc1 (configuration not stated) | – | inactive: 6.68%
CCCCn1c(N)c(N(CCOC)C(=O)CN2C(=O)c3ccccc3C2=O)c(=O)[nH]c1=O | – | inconclusive: -17.3%
COc1cc(NC(=O)c2ccc3c(c2)OCCO3)ccc1NC(=O)c1ccco1 | – | inconclusive: -1.33%
Cc1ccc(NC(=O)c2cccc(Cl)c2)nc1 | – | inconclusive: 11.4%
CCCC(=O)NC(c1ccc(C(C)C)cc1)c1ccc2cccnc2c1O (configuration not stated) | – | inconclusive: -16.2%
Cc1cc(NC(=O)CSc2ccc(-c3nc4cc(C)c(C)cc4[nH]3)cn2)no1 | – | inconclusive: -1.37%
COc1ccc2sc(N(Cc3cccnc3)C(=O)C3COc4ccccc4O3)nc2c1 (configuration not stated) | – | inactive: -14.2%
Oc1ccc(N=C/C=C/c2cccc(Br)c2)cc1-c1nc2ccccc2s1 | – | inconclusive: -23.3%
Cc1ccc(CNC(=O)/C=C/c2c(Cl)cccc2Cl)cc1 | – | inactive: 0.268%
Cc1ccc(-n2ncc3c(NC4CCCC4)ncnc32)cc1 | – | inconclusive: -1.52%
CCOC(=O)c1c(C)[nH]c(C)c1S(=O)(=O)N1CCN(c2cccc(C)c2)C(C)C1 (configuration not stated) | inconclusive: 12.6 µM [falling, partial curve] | –
CC(=O)c1ccc(NC(=O)Oc2ccccc2)cc1 | inconclusive: 6.51 µM [falling, single point] | –

Single entries from the list.
Value for CCn1cc(C(=O)NCc2cccnc2)c2cc(OC)c(OC)cc2c1=O under activity change, negative = inhibition: inconclusive: -11.3%
Value for CC[C@@H]1[C@H]2CCCC(=O)N3CC[C@@H](C[C@@H]1Nc1ccccc1)[C@@H]23 under activity change, negative = inhibition: inconclusive: -23.9%
